PubChem BioAssay AID1671195 – Yale University – 2021
In all, the deposit lists about 22,000 reagents; shown is a random part of them. Of all reagents, about 1,510 (6.9%) were called active. 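Active includes knockdowns raising or lowering LDL uptake; positive z-scores mean more uptake, negative mean less.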

- Test: 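Genes whose knockdown alters LDL uptake in liver cancer cells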 (primary screen)
- Cell system: human Huh7 hepatoma cells
- Reagent: siRNA pool against human genes, 18 nM
- Timing: about 2 to 2.5 days of knockdown, then 8 h LDL uptake
- Treatment: DiI-labelled LDL at 30 µg/ml for 8 h, in lipoprotein-deficient serum medium
- Detection: 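Fluorescent LDL signal imaged in cells, scaled to the plate median, robust z-score for each replicate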
- Scale: robust z-score: higher = more LDL uptake after knockdown
- Call rule: 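a gene counts as active if at least two replicate z-scores exceed ±2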

The opening 5 records, ahead of the listing:
target gene | robust z-score, replicate 1 | robust z-score, replicate 2 | robust z-score, replicate 3 | Outcome
DRD3 | -0.268 | 0.883 | -0.229 | inactive
MLXIPL | 0.92 | 1.51 | 0.894 | inactive
LOC440418 (retired record) | -1.02 | -1.16 | -1.88 | inactive
LOC388887 (retired record) | -0.991 | -1.29 | -1.38 | inactive
SDHAP1 | 0.694 | 0.649 | 0.295 | inactive

Results, from the first entry:
target gene | robust z-score, replicate 1 | robust z-score, replicate 2 | robust z-score, replicate 3 | Outcome
DRD3 | -0.268 | 0.883 | -0.229 | inactive
MLXIPL | 0.92 | 1.51 | 0.894 | inactive
LOC440418 (retired record) | -1.02 | -1.16 | -1.88 | inactive
LOC388887 (retired record) | -0.991 | -1.29 | -1.38 | inactive
SDHAP1 | 0.694 | 0.649 | 0.295 | inactive
CLDN12 | 1.83 | -0.427 | -0.457 | inactive
LTA | 0.0743 | -0.0356 | 0.144 | inactive
PDIA6 | -0.858 | -0.595 | -1.16 | inactive
TMX1 | -0.374 | 0.0781 | 0.418 | inactive
LINC02393 | -0.729 | -1.33 | -1.54 | inactive
ITM2C | -0.181 | -0.119 | -0.521 | inactive
SPATS2 | 2.95 | 2.15 | 2.73 | active
GPNMB | -1.16 | -0.815 | -1.97 | inactive
IRX5 | 0.178 | -0.526 | -1.23 | inactive
CDH6 | -1.41 | -1.28 | -1.38 | inactive
FSHB | 2.74 | 0.34 | 1.69 | inactive
IGLL3P | -1.04 | -0.681 | -0.238 | inactive
PC | -0.878 | 0.533 | 0.501 | inactive
H3-3B | 0.435 | -0.199 | 0.543 | inactive
ZNF519 | 3.28 | 2.32 | 2.69 | active
PRRC1 | 2.55 | 1.63 | -0.0776 | inactive
ZRANB1 | -0.31 | -0.513 | -0.529 | inactive
PLAAT3 | 0.324 | 0.21 | 0.53 | inactive
OR51G1 | 2.43 | 1.91 | 2.05 | active
NDUFA12 | 0.485 | 0.849 | -0.14 | inactive
RPL15 | -0.759 | -1.41 | -0.718 | inactive
COXFA4 | 0.679 | -0.0265 | -0.476 | inactive
ZNF475 | 0.578 | 0.589 | 1.38 | inactive
PSMB11 | -1.03 | -1.08 | -1.18 | inactive
IL12RB2 | 0.744 | 0.979 | 0.564 | inactive
SEMA4F | -0.715 | -1.18 | -1.29 | inactive
CHRNA1 | -0.0866 | -0.136 | -0.261 | inactive
LOC388943 (retired record) | 0.0376 | -0.684 | -0.401 | inactive
RPL13AP24 | -1.52 | -1.74 | -1.25 | inactive
DCXR | 0.282 | -0.347 | -0.244 | inactive
PTBP3 | 2.25 | 3.5 | 2.31 | active
HTR2C | 1.39 | 1.38 | 1.61 | inactive
GIPC2 | 1.08 | 1.18 | 0.722 | inactive
SOX9-AS1 | 0.334 | 0.358 | 0.502 | inactive
MYBPC3 | -0.694 | -0.131 | -0.00429 | inactive
OR5T3 | 0.598 | 0.785 | 0.173 | inactive
DIPK2A | 1.87 | 2.35 | 2.03 | active
LOC441734 (retired record) | -0.619 | -0.671 | -0.337 | inactive
CHN1 | 0.259 | 1.93 | 1.09 | inactive
IGSF3 | -1.29 | -1.02 | -1.17 | inactive
KLK8 | -1.56 | -1.71 | -1.55 | inactive
